Test results from publication PMC11649694.
Where cells or extracts were used, other partners may take part. For some of these results: A negative result means that nothing was seen under these conditions. For some of these results: Construct, isoform or probe ends are uncertain for at least one entry. For some of these results: At least one verdict was read from the data and is not stated in words by the source. For some of these results: The comparison behind a weaker result is the experiment's own reference, which may not be listed here.

Protein sequences, listed by entry. Tags and fused reporters are not part of them.
UniProt P10074, whole entry, stated change not applied: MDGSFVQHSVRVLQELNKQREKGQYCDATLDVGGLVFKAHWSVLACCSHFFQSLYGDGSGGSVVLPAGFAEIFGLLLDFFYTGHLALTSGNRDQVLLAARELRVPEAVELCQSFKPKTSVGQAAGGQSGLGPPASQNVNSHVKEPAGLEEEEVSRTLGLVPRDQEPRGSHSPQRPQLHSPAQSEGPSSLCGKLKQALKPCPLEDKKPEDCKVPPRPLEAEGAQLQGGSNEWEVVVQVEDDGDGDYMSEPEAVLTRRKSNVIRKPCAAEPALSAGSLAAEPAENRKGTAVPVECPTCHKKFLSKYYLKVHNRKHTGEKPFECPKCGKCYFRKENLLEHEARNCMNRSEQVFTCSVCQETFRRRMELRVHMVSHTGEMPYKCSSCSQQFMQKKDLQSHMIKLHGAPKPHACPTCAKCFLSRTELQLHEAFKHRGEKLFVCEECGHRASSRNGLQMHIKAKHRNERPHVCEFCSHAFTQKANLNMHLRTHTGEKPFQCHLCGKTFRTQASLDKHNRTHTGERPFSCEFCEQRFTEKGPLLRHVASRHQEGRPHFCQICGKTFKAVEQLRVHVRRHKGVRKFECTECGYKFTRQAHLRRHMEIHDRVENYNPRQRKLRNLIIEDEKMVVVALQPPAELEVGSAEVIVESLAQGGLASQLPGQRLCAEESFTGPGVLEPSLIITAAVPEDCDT
UniProt P10074, whole entry R611A/R614A: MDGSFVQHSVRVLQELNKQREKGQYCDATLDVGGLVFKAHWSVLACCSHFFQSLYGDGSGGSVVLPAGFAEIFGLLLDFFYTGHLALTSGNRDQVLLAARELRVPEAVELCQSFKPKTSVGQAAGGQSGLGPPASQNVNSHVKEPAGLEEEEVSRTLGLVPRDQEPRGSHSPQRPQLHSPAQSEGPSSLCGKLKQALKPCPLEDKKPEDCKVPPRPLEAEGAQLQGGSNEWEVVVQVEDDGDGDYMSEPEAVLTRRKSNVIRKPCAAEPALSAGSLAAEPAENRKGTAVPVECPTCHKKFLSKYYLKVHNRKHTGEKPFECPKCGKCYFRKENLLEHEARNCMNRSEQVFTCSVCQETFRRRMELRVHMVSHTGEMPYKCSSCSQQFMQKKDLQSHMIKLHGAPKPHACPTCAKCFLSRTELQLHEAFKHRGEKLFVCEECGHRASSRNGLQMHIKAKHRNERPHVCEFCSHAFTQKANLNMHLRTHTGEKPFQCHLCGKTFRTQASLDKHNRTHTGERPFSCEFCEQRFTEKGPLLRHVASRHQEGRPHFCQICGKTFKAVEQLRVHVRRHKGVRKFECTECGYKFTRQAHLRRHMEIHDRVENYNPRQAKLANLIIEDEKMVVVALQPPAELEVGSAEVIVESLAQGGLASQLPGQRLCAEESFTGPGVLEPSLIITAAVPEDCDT
UniProt P10074, whole entry R614A: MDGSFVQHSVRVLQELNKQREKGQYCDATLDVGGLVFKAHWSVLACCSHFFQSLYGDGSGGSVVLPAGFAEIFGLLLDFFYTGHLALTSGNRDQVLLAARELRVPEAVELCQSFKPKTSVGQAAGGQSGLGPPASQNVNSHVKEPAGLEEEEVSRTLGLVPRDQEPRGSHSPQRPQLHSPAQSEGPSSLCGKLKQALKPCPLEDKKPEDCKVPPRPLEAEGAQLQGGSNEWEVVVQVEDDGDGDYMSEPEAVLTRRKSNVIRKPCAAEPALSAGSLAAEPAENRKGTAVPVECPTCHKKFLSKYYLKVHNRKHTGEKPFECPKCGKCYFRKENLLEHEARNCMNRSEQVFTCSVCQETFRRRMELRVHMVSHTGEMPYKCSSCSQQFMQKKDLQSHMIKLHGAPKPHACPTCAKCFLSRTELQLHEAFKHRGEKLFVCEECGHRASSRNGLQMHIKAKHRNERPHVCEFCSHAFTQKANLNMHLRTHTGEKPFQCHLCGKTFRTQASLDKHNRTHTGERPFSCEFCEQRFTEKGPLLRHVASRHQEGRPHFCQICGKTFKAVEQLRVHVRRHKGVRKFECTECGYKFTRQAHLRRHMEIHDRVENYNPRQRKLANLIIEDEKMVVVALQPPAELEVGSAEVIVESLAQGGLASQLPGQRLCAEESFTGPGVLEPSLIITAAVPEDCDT
UniProt P10074, whole entry R611A: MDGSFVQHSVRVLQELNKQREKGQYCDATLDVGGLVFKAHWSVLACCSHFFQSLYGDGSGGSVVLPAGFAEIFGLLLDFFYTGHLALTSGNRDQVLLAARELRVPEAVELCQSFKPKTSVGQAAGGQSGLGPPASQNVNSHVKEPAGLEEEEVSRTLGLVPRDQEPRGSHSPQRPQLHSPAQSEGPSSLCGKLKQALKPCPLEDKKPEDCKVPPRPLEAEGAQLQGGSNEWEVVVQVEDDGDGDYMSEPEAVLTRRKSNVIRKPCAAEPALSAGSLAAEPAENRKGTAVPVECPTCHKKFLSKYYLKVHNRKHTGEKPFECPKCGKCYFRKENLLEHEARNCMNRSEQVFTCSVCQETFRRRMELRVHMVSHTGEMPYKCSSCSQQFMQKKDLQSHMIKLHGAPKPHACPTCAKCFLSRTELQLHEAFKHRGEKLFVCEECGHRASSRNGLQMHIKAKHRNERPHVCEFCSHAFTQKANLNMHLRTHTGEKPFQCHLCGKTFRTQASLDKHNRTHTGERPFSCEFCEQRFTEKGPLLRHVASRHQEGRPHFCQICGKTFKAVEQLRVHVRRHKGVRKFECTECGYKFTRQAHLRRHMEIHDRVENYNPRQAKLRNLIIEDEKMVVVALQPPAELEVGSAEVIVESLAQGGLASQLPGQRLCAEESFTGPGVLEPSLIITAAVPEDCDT

How the values were obtained:
Experiment in all cases: DNA pull-down/immunoblot
[1] = biological target: ZBTB48 endogenous (U2OS nuclear extract) (Homo sapiens (U2OS cells)) (UniProt P10074); conditions: Pull-down: 150 mM NaCl, 50 mM Tris-HCl pH 7.5, 5 mM MgCl2, 0.5% Igepal CA-630, 1 mM DTT, 20 ug salmon sperm DNA, 4 C 2 h; protein in an extract; label: desthiobiotin-dATP
[2] = biological target: FLAG-ZBTB48 delta ZnF1-9 + ZnF10 mutant (UniProt P10074); conditions: Pull-down: 150 mM NaCl, 50 mM Tris-HCl pH 7.5, 5 mM MgCl2, 0.5% Igepal CA-630, 1 mM DTT, 20 ug salmon sperm DNA, 4 C 2 h; protein in a lysate after overexpression; protein details: FLAG; label: desthiobiotin-dATP
FLAG-ZBTB48 ZnF5 mutant = FLAG-ZBTB48 ZnF5 mutant (UniProt P10074); conditions: Pull-down: 150 mM NaCl, 50 mM Tris-HCl pH 7.5, 5 mM MgCl2, 0.5% Igepal CA-630, 1 mM DTT, 20 ug salmon sperm DNA, 4 C 2 h; protein in a lysate after overexpression; residues 1-688; protein details: FLAG; label: desthiobiotin-dATP
FLAG-ZBTB48 ZnF9 mutant = FLAG-ZBTB48 ZnF9 mutant (UniProt P10074); conditions: Pull-down: 150 mM NaCl, 50 mM Tris-HCl pH 7.5, 5 mM MgCl2, 0.5% Igepal CA-630, 1 mM DTT, 20 ug salmon sperm DNA, 4 C 2 h; protein in a lysate after overexpression; residues 1-688; protein details: FLAG; label: desthiobiotin-dATP
FLAG-ZBTB48 ZnF10 mutant = FLAG-ZBTB48 ZnF10 mutant (UniProt P10074); conditions: Pull-down: 150 mM NaCl, 50 mM Tris-HCl pH 7.5, 5 mM MgCl2, 0.5% Igepal CA-630, 1 mM DTT, 20 ug salmon sperm DNA, 4 C 2 h; protein in a lysate after overexpression; residues 1-688; protein details: FLAG; label: desthiobiotin-dATP
FLAG-ZBTB48 WT = FLAG-ZBTB48 WT (UniProt P10074); conditions: Pull-down: 150 mM NaCl, 50 mM Tris-HCl pH 7.5, 5 mM MgCl2, 0.5% Igepal CA-630, 1 mM DTT, 20 ug salmon sperm DNA, 4 C 2 h; protein in a lysate after overexpression; residues 1-688; protein details: FLAG; label: desthiobiotin-dATP
[3] = biological target: ZBTB48 endogenous (SUDHL4 nuclear extract) (Homo sapiens (SUDHL4 cells)) (UniProt P10074); conditions: Pull-down: 150 mM NaCl, 50 mM Tris-HCl pH 7.5, 5 mM MgCl2, 0.5% Igepal CA-630, 1 mM DTT, 20 ug salmon sperm DNA, 4 C 2 h; protein in an extract; label: desthiobiotin-dATP
FLAG-ZBTB48 R611A/R614A = FLAG-ZBTB48 R611A/R614A (UniProt P10074); conditions: Pull-down: 150 mM NaCl, 50 mM Tris-HCl pH 7.5, 5 mM MgCl2, 0.5% Igepal CA-630, 1 mM DTT, 20 ug salmon sperm DNA, 4 C 2 h; protein in a lysate after overexpression; residues 1-688; protein details: FLAG; label: desthiobiotin-dATP
FLAG-ZBTB48 ZnF4 mutant = FLAG-ZBTB48 ZnF4 mutant (UniProt P10074); conditions: Pull-down: 150 mM NaCl, 50 mM Tris-HCl pH 7.5, 5 mM MgCl2, 0.5% Igepal CA-630, 1 mM DTT, 20 ug salmon sperm DNA, 4 C 2 h; protein in a lysate after overexpression; residues 1-688; protein details: FLAG; label: desthiobiotin-dATP
FLAG-ZBTB48 ZnF11 mutant = FLAG-ZBTB48 ZnF11 mutant (UniProt P10074); conditions: Pull-down: 150 mM NaCl, 50 mM Tris-HCl pH 7.5, 5 mM MgCl2, 0.5% Igepal CA-630, 1 mM DTT, 20 ug salmon sperm DNA, 4 C 2 h; protein in a lysate after overexpression; residues 1-688; protein details: FLAG; label: desthiobiotin-dATP
FLAG-ZBTB48 ZnF8 mutant = FLAG-ZBTB48 ZnF8 mutant (UniProt P10074); conditions: Pull-down: 150 mM NaCl, 50 mM Tris-HCl pH 7.5, 5 mM MgCl2, 0.5% Igepal CA-630, 1 mM DTT, 20 ug salmon sperm DNA, 4 C 2 h; protein in a lysate after overexpression; residues 1-688; protein details: FLAG; label: desthiobiotin-dATP
FLAG-ZBTB48 R614A = FLAG-ZBTB48 R614A (UniProt P10074); conditions: Pull-down: 150 mM NaCl, 50 mM Tris-HCl pH 7.5, 5 mM MgCl2, 0.5% Igepal CA-630, 1 mM DTT, 20 ug salmon sperm DNA, 4 C 2 h; protein in a lysate after overexpression; residues 1-688; protein details: FLAG; label: desthiobiotin-dATP
[4] = biological target: FLAG-ZBTB48 delta ZnF1-9 + ZnF11 mutant (UniProt P10074); conditions: Pull-down: 150 mM NaCl, 50 mM Tris-HCl pH 7.5, 5 mM MgCl2, 0.5% Igepal CA-630, 1 mM DTT, 20 ug salmon sperm DNA, 4 C 2 h; protein in a lysate after overexpression; protein details: FLAG; label: desthiobiotin-dATP
FLAG-ZBTB48 ZnF1 mutant = FLAG-ZBTB48 ZnF1 mutant (UniProt P10074); conditions: Pull-down: 150 mM NaCl, 50 mM Tris-HCl pH 7.5, 5 mM MgCl2, 0.5% Igepal CA-630, 1 mM DTT, 20 ug salmon sperm DNA, 4 C 2 h; protein in a lysate after overexpression; residues 1-688; protein details: FLAG; label: desthiobiotin-dATP
FLAG-ZBTB48 ZnF6 mutant = FLAG-ZBTB48 ZnF6 mutant (UniProt P10074); conditions: Pull-down: 150 mM NaCl, 50 mM Tris-HCl pH 7.5, 5 mM MgCl2, 0.5% Igepal CA-630, 1 mM DTT, 20 ug salmon sperm DNA, 4 C 2 h; protein in a lysate after overexpression; residues 1-688; protein details: FLAG; label: desthiobiotin-dATP
FLAG-ZBTB48 ZnF3 mutant = FLAG-ZBTB48 ZnF3 mutant (UniProt P10074); conditions: Pull-down: 150 mM NaCl, 50 mM Tris-HCl pH 7.5, 5 mM MgCl2, 0.5% Igepal CA-630, 1 mM DTT, 20 ug salmon sperm DNA, 4 C 2 h; protein in a lysate after overexpression; residues 1-688; protein details: FLAG; label: desthiobiotin-dATP
FLAG-ZBTB48 ZnF7 mutant = FLAG-ZBTB48 ZnF7 mutant (UniProt P10074); conditions: Pull-down: 150 mM NaCl, 50 mM Tris-HCl pH 7.5, 5 mM MgCl2, 0.5% Igepal CA-630, 1 mM DTT, 20 ug salmon sperm DNA, 4 C 2 h; protein in a lysate after overexpression; residues 1-688; protein details: FLAG; label: desthiobiotin-dATP
FLAG-ZBTB48 R611A = FLAG-ZBTB48 R611A (UniProt P10074); conditions: Pull-down: 150 mM NaCl, 50 mM Tris-HCl pH 7.5, 5 mM MgCl2, 0.5% Igepal CA-630, 1 mM DTT, 20 ug salmon sperm DNA, 4 C 2 h; protein in a lysate after overexpression; residues 1-688; protein details: FLAG; label: desthiobiotin-dATP

Sequence: ATCCCTCACTTGTTTCTTATCCCTCACTTGTTTCTTATCCCTCACTTGTTTCTT / ATAAGAAACAAGTGAGGGATAAGAAACAAGTGAGGGATAAGAAACAAGTGAGGG [CIITA pIII probe e.3 (listed as f.3 in Dataset EV5)]
- binding result [1]: no binding

Sequence: CTCACTTGTTTCTTTGCATGTTGGCTTAGCTTGGCGGGCTCCCAACTGGTGACTGGTTAG / AGCTAACCAGTCACCAGTTGGGAGCCCGCCAAGCTAAGCCAACATGCAAAGAAACAAGTG [CIITA pIII probe 5]
- binding result [1]: no binding

Sequence: CTGACCGCTTGGGGCCACCTTGCAGGGAGAGTTTTTTTGATGATCCCTCACTTGTTTCTT / AGAAGAAACAAGTGAGGGATCATCAAAAAAACTCTCCCTGCAAGGTGGCCCCAAGCGGTC [CIITA pIII probe 4]
- binding result [1]: binds

Sequence: CTGCCAGACTCCGGGAGCTGCTGCCTGGCTGGGATTCCTACACAATGCGTTGCCTGGCTC / AGGAGCCAGGCAACGCATTGTGTAGGAATCCCAGCCAGGCAGCAGCTCCCGGAGTCTGGC [CIITA pIII probe 8]
- binding result [1]: no binding

Sequence: CTGGGCATCCGAAGGCATCCTTGGGGAAGCTGAGGGCACGAGGAGGGGCTGCCAGACTCC / AGGGAGTCTGGCAGCCCCTCCTCGTGCCCTCAGCTTCCCCAAGGATGCCTTCGGATGCCC [CIITA pIII probe 7]
- binding result [1]: no binding

Sequence: CTTAAGGGAGTGTGGCTTAAGGGAGTGTGGCTTAAGGGAGTGTGGCTTAAGGGAGTGTGG / AGCCACACTCCCTTAAGCCACACTCCCTTAAGCCACACTCCCTTAAGCCACACTCCCTTA [CIITA pIII probe b.1 (ARE-1)]
- binding result [2]: binds more weakly
- binding result (FLAG-ZBTB48 ZnF5 mutant): binds
- binding result (FLAG-ZBTB48 ZnF9 mutant): binds
- binding result (FLAG-ZBTB48 ZnF10 mutant): binds more weakly
- binding result (FLAG-ZBTB48 WT): binds
- binding result [1]: binds
- binding result [3]: binds
- binding result (FLAG-ZBTB48 R611A/R614A): no binding
- binding result (FLAG-ZBTB48 ZnF4 mutant): binds
- binding result (FLAG-ZBTB48 ZnF11 mutant): no binding
- binding result (FLAG-ZBTB48 ZnF8 mutant): binds
- binding result (FLAG-ZBTB48 R614A): no binding
- binding result [4]: no binding
- binding result (FLAG-ZBTB48 ZnF1 mutant): binds
- binding result (FLAG-ZBTB48 ZnF6 mutant): binds
- binding result (FLAG-ZBTB48 ZnF3 mutant): binds
- binding result (FLAG-ZBTB48 ZnF7 mutant): binds
- binding result (FLAG-ZBTB48 R611A): no binding

Sequence: CTTAAGGGAGTGTGGTAAAATTAGAGGGTGCTTAAGGGAGTGTGGTAAAATTAGAGGGTG / AGCACCCTCTAATTTTACCACACTCCCTTAAGCACCCTCTAATTTTACCACACTCCCTTA [CIITA pIII probe b]
- binding result [1]: binds

Sequence: CTTAAGGGAGTGTGGTAAAATTAGAGGGTGTTCAGAAACAGAAATCTGACCGCTTGGGGC / AGGCCCCAAGCGGTCAGATTTCTGTTTCTGAACACCCTCTAATTTTACCACACTCCCTTA [CIITA pIII probe 3]
- binding result [1]: binds

Sequence: CTTGGGGCCACCTTGCAGGGAGAGTTTTTTCTTGGGGCCACCTTGCAGGGAGAGTTTTTT / AGAAAAAACTCTCCCTGCAAGGTGGCCCCAAGAAAAAACTCTCCCTGCAAGGTGGCCCCA [CIITA pIII probe d (listed as e in Dataset EV5)]
- binding result [1]: no binding

Sequence: GTAAAATTAGAGGGTGGTAAAATTAGAGGGTGGTAAAATTAGAGGGTG / ACCACCCTCTAATTTTACCACCCTCTAATTTTACCACCCTCTAATTTT [CIITA pIII probe b.3]
- binding result [1]: no binding

Sequence: GTCCACAGTAAGGAAGTGAAATTAATTTCAGAGGTGTGGGGAGGGCTTAAGGGAGTGTGG / ACCCACACTCCCTTAAGCCCTCCCCACACCTCTGAAATTAATTTCACTTCCTTACTGTGG [CIITA pIII probe 2]
- binding result [1]: binds
